PubChem BioAssay AID686937 | Drosophila RNAi Screening Center – 2013

- Assay: 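Genes whose loss weakens secretory pathway function in fly cells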 (primary screen)
- Cell system: Drosophila S2 cells expressing secreted horseradish peroxidase
- Reagents: long dsRNA against Drosophila genes
- Duration: about 5.5 days (5 days dsRNA, then 12 h reporter induction)
- Treatment: reporter expression induced after 5 days of dsRNA, read 12 h later; inducer not stated
- Detection: 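After 5 days of dsRNA and 12 h of reporter induction, medium peroxidase read by chemiluminescence and scored as per-plate z-score; higher values mean more reporter released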
- Direction: z-score: higher = more reporter secreted into medium
The screen tested about 23,000 reagents; shown is an unselected part of those with a known target gene and a result. 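Reduced-secretion tags in replicate 1 do not always agree with the z-scores; no criterion for assigning the tags was given.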 Reagents against one gene are numbered here. Further read-outs or replicates are left out here. Not stated in the record: the amount of reagent.

| target | reagent | z-score, replicate 1 | z-score, replicate 2 | z-score, replicate 3 | z-score, replicate 4 |
| --- | --- | --- | --- | --- | --- |
| Cpr56F | 1 | 0.35 | 0.33 | – | – |
| CG15812 | 1 | -0.04 | -0.17 | – | – |
| CG7420 | 1 | 0.34 | 0.35 | – | – |
| IntS12 | 1 | 0.67 | 1.05 | – | – |
| CG8891 | 1 | 0.18 | 0.41 | – | – |
| Nep2 | 1 | 0.35 | 0.44 | – | – |
| Nep2 | 2 | 0.23 | -0.02 | – | – |
| Alg12 | 1 | 0.33 | 0.32 | – | – |
| Ufsp2 | 1 | 0.32 | 0.29 | – | – |
| EndoG | 1 | 0.14 | 0.4 | 0.37 | 0.12 |
| EndoG | 2 | 0.91 | 0.14 | – | – |
| CG15093 | 1 | 0.21 | 0.26 | – | – |
| CG31104 | 1 | 0.24 | 0.29 | – | – |
| CG32452 | 1 | 0.58 | 0.27 | – | – |
| CG32452 | 2 | -0.03 | 0.1 | – | – |
| CG5199 | 1 | 0.52 | 0.56 | – | – |

Sorted by “z-score, replicate 1” (high to low): 2 of the entries above.
| target | reagent | z-score, replicate 1 | z-score, replicate 2 | z-score, replicate 3 | z-score, replicate 4 |
| --- | --- | --- | --- | --- | --- |
| Nep2 | 1 | 0.35 | 0.44 | – | – |
| Nep2 | 2 | 0.23 | -0.02 | – | – |

Continued:
| target | reagent | z-score, replicate 1 | z-score, replicate 2 | z-score, replicate 3 | z-score, replicate 4 |
| --- | --- | --- | --- | --- | --- |
| CG12343 | 1 | 0.1 | 0.19 | – | – |
| e(y)2 | 1 | 0.26 | -0.85 | – | – |
| hzg | 1 | -1.2 | -0.78 | – | – |
| ps | 1 | 0.29 | -1.48 | – | – |
| ps | 2 | -0.26 | 0.03 | – | – |
| ps | 3 | -2.9 | -1.69 | – | – |
| ps | 4 | -6.45 | -5.76 | – | – |
| CG42615 | 1 | -0.21 | – | – | – |
| nonA | 1 | -0.07 | -0.04 | – | – |
| Cpr49Ab | 1 | 0.2 | 0.27 | – | – |
| RpL14 | 1 | -3.51 | -1.98 | – | – |
| CG12594 | 1 | 0.35 | 0.7 | – | – |
| COX8 | 1 | -0.23 | -0.57 | – | – |
| epsilonCOP | 1 | 0.07 | 0 | – | – |
| ClC-b | 1 | 0.3 | 0.26 | – | – |
| Mrp4 | 1 | 0.08 | 0.21 | – | – |
| CG9451 | 1 | 0.16 | -0.14 | – | – |
